Data taken from the supplement of paper PMC4635364.
Where a name gives a salt, the structure may show the parent alone. The list shows a part of the results. This data set is noisy: repeats of one test often differ as much as different tests do.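 Human fetal ventral-midbrain neural progenitor line ReNCell VM, differentiated without mitogens. Images stained for doublecortin (early neurons) or tyrosine hydroxylase (dopaminergic neurons) were scored by blinded raters against untreated wells (0 = no change). Repeats and both raters were averaged, and compounds averaging 2 or higher were picked as hits for retesting.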

system: ReNCell VM; assay: dopaminergic neuron differentiation score (TH+ cell fraction vs untreated, manual image score) (score (0 to 3)); higher = more TH+ dopaminergic neuron differentiation; settings: library: LOPAC; 2 uM; 4 weeks; BDNF 10 ng/ml + GDNF 10 ng/ml

SMILES	dopaminergic neuron differentiation score
CO/N=C(\C(=O)N[C@@H]1C(=O)N2C(C(=O)O)=C(CSc3nc(=O)c(O)nn3C)CS[C@H]12)c1csc(N)n1 [Ceftriaxone sodium]	inactive: 0
C[N+]1(C)CCC(OC(=O)C(c2ccccc2)c2ccccc2)CC1 [4-DAMP methiodide]	inactive: 0
O=c1[nH]c2ccccc2c2ccccc12 [6(5H)-Phenanthridinone]	inactive: 0
Cc1nc(N=Nc2ccc(C(=O)O)cc2)c(COP(=O)(O)O)c(C=O)c1O	inactive: 0
c1ccc2c(c1)CC(N1CCN(c3cccc4c3OCCO4)CC1)C2	inactive: 0
CNc1ncnc2c1ncn2[C@H]1C[C@H](OP(=O)(O)O)[C@@H](COP(=O)(O)O)O1	inactive: 0

same assay, conditions: library: Prestwick; 2 uM; 4 weeks; BDNF 10 ng/ml + GDNF 10 ng/ml

SMILES	dopaminergic neuron differentiation score
CN(C)CCOC(=O)COc1ccc(Cl)cc1 [Meclofenoxate hydrochloride]	inactive: 0
CC(=O)c1ccc2c(c1)N(CCCN(C)C)c1ccccc1S2 [Acetopromazine maleate salt]	inactive: 0
O=C(Nc1cccc2c(=O)cc(-c3nnn[nH]3)oc12)c1ccc(OCCCCc2ccccc2)cc1 [Pranlukast]	inactive: 0
CC(=O)[C@H]1CC[C@H]2[C@@H]3C[C@H](C)C4=CC(=O)CC[C@]4(C)[C@H]3[C@@H](O)C[C@]12C [Medrysone]	inactive: 0
C=CC[N@@+]12CC[C@@]34c5ccccc5N5/C=C6/[C@H]7C[C@H]8[C@@]9(CC[N@@+]8(CC=C)C/C7=C/CO)c7ccccc7N(/C=C(/[C@@H](C[C@@H]31)/C(=C\CO)C2)[C@H]54)[C@@H]69 [Alcuronium chloride]	inactive: 0
CCN(CC)CC#CCOC(=O)C(O)(c1ccccc1)C1CCCCC1 (configuration not stated) [Oxybutynin chloride]	inactive: 0
O=C(NCCN1CCOCC1)c1ccc(Cl)cc1 [Moclobemide]	inactive: 0

same assay, conditions: library: Spectrum; 2 uM; 4 weeks; BDNF 10 ng/ml + GDNF 10 ng/ml

SMILES	dopaminergic neuron differentiation score
O=c1ccc2ccccc2o1	inactive: 0
CC1(C)CC[C@]2(C(=O)O)CC[C@]3(C)C(=CC[C@@H]4[C@@]5(C)CC[C@H](O)[C@@](C)(CO)[C@@H]5CC[C@]43C)[C@@H]2C1	inactive: 0
NCCCC[C@H](N[C@@H](CCc1ccccc1)C(=O)O)C(=O)N1CCC[C@H]1C(=O)O	inactive: 0
O=C(O)CCC(=O)c1ccc(-c2ccccc2)cc1	inactive: 0
CC(=O)O[C@H]1CC[C@@]2(C)[C@@H](CC[C@@H]3[C@@H]2CC(=O)[C@]2(C)[C@@H]4[C@H](C[C@@H]32)O[C@]2(CC[C@@H](C)CO2)[C@H]4C)C1	inactive: 0
C#C[C@]1(O)CC[C@H]2[C@@H]3CCC4=C(CCC(=O)C4)[C@H]3CC[C@@]21C	inactive: 0
CC[N+](C)(CC)CCOC(=O)C(O)(c1ccccc1)C1CCCCC1 (configuration not stated)	inactive: 0
C=CCSCC(N)C(=O)O (configuration not stated)	inactive: 0
CO/N=C(\C(=O)N[C@@H]1C(=O)N2C(C(=O)OCOC(=O)C(C)(C)C)=C(/C=C\c3scnc3C)CS[C@H]12)c1csc(N)n1	inactive: 0
CC1(C)S[C@@H]2[C@H](NC(=O)COc3ccccc3)C(=O)N2[C@H]1C(=O)O	inactive: 0
O=c1cc(-c2ccccc2)oc2cccc(O)c12	inactive: 0
CC(=O)/N=c1/sc(S(N)(=O)=O)nn1C	inactive: 0
COc1ccc(-c2coc3cc(O)ccc3c2=O)c(O)c1O	inactive: 0
CCS(=O)(=O)CCn1c([N+](=O)[O-])cnc1C	inactive: 0
CN(C)[C@@H]1C(O)=C(C(=O)NCN2CCCC2)C(=O)[C@@]2(O)C(O)=C3C(=O)c4c(O)cccc4[C@@](C)(O)[C@H]3C[C@@H]12	inactive: 0
NC1CCN(c2c(F)cc3c(=O)c(C(=O)O)cn(C4CC4)c3c2Cl)C1 (configuration not stated)	inactive: 0
O=C(O)/C=C/C=C/c1ccccc1	inactive: 0
COC(=O)c1c(OC)cc2c(c1C)Oc1c(Cl)c(O)c(Cl)c(C)c1C(=O)O2	inactive: 0
CN(C)[C@@H]1C(O)=C(C(N)=O)C(=O)[C@@]2(O)C(O)=C3C(=O)c4c(O)ccc(Cl)c4[C@@H](O)[C@H]3C[C@@H]12	inactive: 0

Two neighbouring records out of the list so far, quoted:
SMILES	dopaminergic neuron differentiation score
CCS(=O)(=O)CCn1c([N+](=O)[O-])cnc1C	inactive: 0
CN(C)[C@@H]1C(O)=C(C(=O)NCN2CCCC2)C(=O)[C@@]2(O)C(O)=C3C(=O)c4c(O)cccc4[C@@](C)(O)[C@H]3C[C@@H]12	inactive: 0
